This is an account of results in the supplement of paper PMC10735217.

The list shows a part of the results. This data set is noisy: repeats of one test often differ as much as different tests do.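 In a drug-repurposing library screen, luminescence reads luciferase driven by eight TEAD-binding elements, stably integrated into human kidney-derived cells. Compounds scoring over five robust Z scores above the plate mean are called hits.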

In the assay the test system is HEK293A TEAD-LUC reporter. Kind of assay: TEAD-luciferase reporter activity (YAP activation), robust Z score vs plate; higher = stronger YAP/TEAD activation. The note with it: 24 h. A general note: In a reporter assay the amount or activity of a reporter protein is the signal.

As to `O=c1cc[nH]c(=S)[nH]1`, the TEAD-luciferase reporter activity (compound concentration: 200 nM) is inactive: -0.0784, the TEAD-luciferase reporter activity (compound concentration: 2 uM) is inactive: -1.49 and the TEAD-luciferase reporter activity (compound concentration: 10 uM) is inactive: 1.21.

For `CC(=O)/C=C(\C)c1ccc(-c2ccccc2)cc1` [xenipentone], the TEAD-luciferase reporter activity is inactive: -0.908 (compound concentration: 200 nM), inactive: 0.18 (compound concentration: 2 uM) and inactive: 2.82 (compound concentration: 10 uM).

With `O=C1[C@@H]2[C@H]3CC[C@H](C3)[C@@H]2C(=O)N1CCCCN1CCN(c2ncccn2)CC1` [tandospirone], the TEAD-luciferase reporter activity by setting is: (compound concentration: 200 nM) inactive: -0.771; (compound concentration: 2 uM) inactive: 1.03; (compound concentration: 10 uM) inactive: 0.459.

With `O=C1NC(=O)C(c2cnc3ccccn23)=C1c1cn2c3c(cc(F)cc13)CN(C(=O)N1CCCCC1)CC2`, the TEAD-luciferase reporter activity is inactive: -1.88 (compound concentration: 200 nM), inactive: -3.83 (compound concentration: 2 uM) and inactive: -4.05 (compound concentration: 10 uM).

`O=C(O)[C@H]1O[C@@H](Oc2cc3oc(-c4ccccc4)cc(=O)c3c(O)c2O)[C@H](O)[C@@H](O)[C@@H]1O`: the TEAD-luciferase reporter activity was inactive: 2.68 (compound concentration: 200 nM), inactive: -0.998 (compound concentration: 2 uM) and inactive: -0.788 (compound concentration: 10 uM).

In the case of `CN(Cc1cnc2nc(N)nc(N)c2n1)c1ccc(C(=O)N[C@@H](CCC(=O)NCCCCCN)C(=O)O)cc1`, the TEAD-luciferase reporter activity runs as follows: (compound concentration: 200 nM) inactive: 1.62; (compound concentration: 2 uM) inactive: -1.17; (compound concentration: 10 uM) inactive: -1.44.

Take `Cc1ccc(O)c(Cn2c(NC3CCN(CCN)CC3)nc3c(C)cccc32)n1`: the TEAD-luciferase reporter activity was inactive: -1.19 (compound concentration: 200 nM), inactive: 0.0941 (compound concentration: 2 uM) and inactive: -0.17 (compound concentration: 10 uM).

For `Cc1c(N2CC[C@H](N)C2)c(F)cn2c(=O)c(C(=O)O)cc(C3CC3)c12`, the TEAD-luciferase reporter activity (compound concentration: 200 nM) is inactive: -0.711, the TEAD-luciferase reporter activity (compound concentration: 2 uM) was inactive: -1.16 and the TEAD-luciferase reporter activity (compound concentration: 10 uM) is inactive: -0.449.

On to `CCOc1ccc(C(=O)CCC(=O)N2CC=C(c3ccc(OC)cc3)CC2)cc1`, for which the TEAD-luciferase reporter activity (compound concentration: 200 nM) is inactive: -2.01, the TEAD-luciferase reporter activity (compound concentration: 2 uM) was inactive: -0.0313 and the TEAD-luciferase reporter activity (compound concentration: 10 uM) is inactive: 3.84.

Take `CC(C)N1C(=O)N(CC2CCOCC2)C[C@]12C[C@H]1CC[C@@H](C2)N1CC[C@H](NC(=O)C1CCC(F)(F)CC1)c1ccccc1`: the TEAD-luciferase reporter activity reads like this: (compound concentration: 200 nM) inactive: -0.649; (compound concentration: 2 uM) inactive: -0.662; (compound concentration: 10 uM) inactive: 0.376.

For `CCOC(=O)NCc1coc2ccc(S(=O)(=O)N(CC(C)C)C[C@@H](O)[C@H](Cc3ccccc3)NC(=O)O[C@H]3CO[C@H]4OCC[C@H]43)cc12`, the TEAD-luciferase reporter activity reads like this: (compound concentration: 200 nM) inactive: -0.927; (compound concentration: 2 uM) inactive: 0.197; (compound concentration: 10 uM) inactive: -1.5.

In the case of `CC(N)C(=O)NC(=O)C(CCCCN)NC(=O)C(Cc1ccccc1)NC(=O)C(Cc1c[nH]c2ccccc12)NC(=O)C(C)NC(=O)C(N)Cc1ccc2ccccc2c1` (stereo not given) [Pralmorelin], the TEAD-luciferase reporter activity (compound concentration: 200 nM) was inactive: -0.145, the TEAD-luciferase reporter activity (compound concentration: 2 uM) is inactive: -1.5 and the TEAD-luciferase reporter activity (compound concentration: 10 uM) was inactive: -0.19.

In the case of `Nc1ncnc2c1ncn2[C@@H]1O[C@H](COP(=O)(O)OP(=O)(O)OP(=O)(O)OP(=O)(O)OC[C@H]2O[C@@H](n3cnc4c(N)ncnc43)[C@H](O)[C@@H]2O)[C@@H](O)[C@H]1O` [Diadenosine tetraphosphate], the TEAD-luciferase reporter activity is, setting by setting: (compound concentration: 200 nM) inactive: -0.849; (compound concentration: 10 uM) inactive: 1.66.

As to `C[C@@H](Nc1ncnc2[nH]c(-c3ccc(O)cc3)cc12)c1ccccc1`, the TEAD-luciferase reporter activity was inactive: -1.15 (compound concentration: 200 nM), inactive: -0.567 (compound concentration: 2 uM) and inactive: -1.94 (compound concentration: 10 uM).

In the case of `CC1(C)S[C@@H]2[C@H](NC(=O)[C@H](NC(=O)N(CCCO)C(=O)c3ccc(O)c(O)c3)c3ccccc3)C(=O)N2[C@H]1C(=O)[O-]`, the TEAD-luciferase reporter activity reads like this: (compound concentration: 200 nM) inactive: -0.686; (compound concentration: 2 uM) inactive: -1.29; (compound concentration: 10 uM) inactive: 1.3.

On to `CCc1c(C(=O)NN2CCCCC2)nn(-c2ccc(Cl)cc2Cl)c1-c1ccc(Br)cc1` [Surinabant], for which the TEAD-luciferase reporter activity is inactive: -1.44 (compound concentration: 200 nM) and inactive: 1.58 (compound concentration: 10 uM).

Regarding `COCCN1CCC(N(Cc2ccc(-c3ccc(C(F)(F)F)cc3)cc2)C(=O)c2ccnc(F)c2)CC1`, the TEAD-luciferase reporter activity reads like this: (compound concentration: 200 nM) inactive: 0.0485; (compound concentration: 2 uM) inactive: -1.33; (compound concentration: 10 uM) inactive: -0.115.

As for `COc1ccc2c(c1)C(=O)N(CCc1ccc(S(=O)(=O)NC(=O)NC3CCCCC3)cc1)C(=O)C2(C)C` [gliquidone], the TEAD-luciferase reporter activity (compound concentration: 2 uM) was inactive: -1.9.

As for `COc1ccc2c(c1)C(=O)N(CCc1ccc(S(=O)(=O)NC(=O)NC3CCCCC3)cc1)C(=O)C2(C)C` [Gliquidone], the TEAD-luciferase reporter activity (compound concentration: 200 nM) was inactive: -0.932 and the TEAD-luciferase reporter activity (compound concentration: 10 uM) is inactive: -1.24.

For `CC(C)NCC(O)COc1ccc(CCNC(=O)NC(C)C)cc1` (stereo not given), the TEAD-luciferase reporter activity reads like this: (compound concentration: 200 nM) inactive: 0.277; (compound concentration: 2 uM) inactive: 0.182; (compound concentration: 10 uM) inactive: -1.35.

Consider `O=C1NCCc2[nH]c(-c3ccncc3)cc21` [Cdc7/Cdk9 Inhibitor], for which the TEAD-luciferase reporter activity reads like this: (compound concentration: 200 nM) inactive: -1.26; (compound concentration: 2 uM) inactive: 4.04; (compound concentration: 10 uM) inactive: 0.591.

Take `CCCCCCCCCCCCCCCC[N+](C)(C)CC` [mecetronium ethylsulfate]: the TEAD-luciferase reporter activity was inactive: -1.38 (compound concentration: 200 nM), inactive: -1.86 (compound concentration: 2 uM) and inactive: -1.34 (compound concentration: 10 uM).

Take `CCCCC/C=C\C/C=C\C/C=C\CCCCC(=O)OC(COC(=O)CCCCCCC/C=C\C/C=C\CCCCC)COC(=O)CCCCCCC/C=C\C/C=C\CCCCC`: the TEAD-luciferase reporter activity was inactive: -1.72 (compound concentration: 200 nM), inactive: -0.167 (compound concentration: 2 uM) and inactive: -0.288 (compound concentration: 10 uM).

Turning to `Nc1cnc(-c2cc(Cl)cc(Cl)c2Cl)c(N)n1` [Elpetrigine], the TEAD-luciferase reporter activity reads like this: (compound concentration: 200 nM) inactive: -0.564; (compound concentration: 2 uM) inactive: -0.294; (compound concentration: 10 uM) inactive: 0.229.

Consider `CCNc1cc(-c2csc(N(C)C(=O)c3ccc(F)cc3)n2)ncn1`, for which the TEAD-luciferase reporter activity reads like this: (compound concentration: 200 nM) inactive: 0.165; (compound concentration: 2 uM) inactive: 0.164; (compound concentration: 10 uM) inactive: 2.55.
